## Results of single-concentration screens

Sequences of proteins named here, by UniProt entry; tags and fusion partners are left off. Residues count along the entry.
UniProt P9WPC5, whole entry: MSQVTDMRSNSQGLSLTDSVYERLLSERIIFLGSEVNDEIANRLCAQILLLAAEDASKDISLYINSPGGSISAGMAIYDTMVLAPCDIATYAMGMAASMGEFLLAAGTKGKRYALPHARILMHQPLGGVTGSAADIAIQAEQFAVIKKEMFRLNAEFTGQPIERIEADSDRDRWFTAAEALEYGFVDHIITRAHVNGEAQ
UniProt P9WPC3, whole entry partner: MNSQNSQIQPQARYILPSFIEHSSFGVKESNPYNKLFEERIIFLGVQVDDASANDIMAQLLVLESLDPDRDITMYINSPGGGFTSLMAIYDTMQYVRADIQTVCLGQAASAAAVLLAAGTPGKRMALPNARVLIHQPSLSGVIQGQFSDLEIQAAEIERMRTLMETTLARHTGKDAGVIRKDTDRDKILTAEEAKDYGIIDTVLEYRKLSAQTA
UniProt P9WNZ1, whole entry: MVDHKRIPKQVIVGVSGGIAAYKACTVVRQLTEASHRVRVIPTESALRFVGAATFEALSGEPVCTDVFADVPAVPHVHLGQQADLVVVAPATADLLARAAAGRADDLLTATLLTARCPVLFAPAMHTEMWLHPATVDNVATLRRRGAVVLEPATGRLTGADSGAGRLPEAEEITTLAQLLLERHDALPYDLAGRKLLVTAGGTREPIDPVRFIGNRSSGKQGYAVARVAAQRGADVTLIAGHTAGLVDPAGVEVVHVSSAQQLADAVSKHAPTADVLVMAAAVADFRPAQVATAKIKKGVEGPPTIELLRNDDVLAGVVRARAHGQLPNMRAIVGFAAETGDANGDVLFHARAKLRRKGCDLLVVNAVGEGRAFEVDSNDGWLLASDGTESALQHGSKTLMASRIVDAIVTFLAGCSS
UniProt Q8IDJ8, 1-583: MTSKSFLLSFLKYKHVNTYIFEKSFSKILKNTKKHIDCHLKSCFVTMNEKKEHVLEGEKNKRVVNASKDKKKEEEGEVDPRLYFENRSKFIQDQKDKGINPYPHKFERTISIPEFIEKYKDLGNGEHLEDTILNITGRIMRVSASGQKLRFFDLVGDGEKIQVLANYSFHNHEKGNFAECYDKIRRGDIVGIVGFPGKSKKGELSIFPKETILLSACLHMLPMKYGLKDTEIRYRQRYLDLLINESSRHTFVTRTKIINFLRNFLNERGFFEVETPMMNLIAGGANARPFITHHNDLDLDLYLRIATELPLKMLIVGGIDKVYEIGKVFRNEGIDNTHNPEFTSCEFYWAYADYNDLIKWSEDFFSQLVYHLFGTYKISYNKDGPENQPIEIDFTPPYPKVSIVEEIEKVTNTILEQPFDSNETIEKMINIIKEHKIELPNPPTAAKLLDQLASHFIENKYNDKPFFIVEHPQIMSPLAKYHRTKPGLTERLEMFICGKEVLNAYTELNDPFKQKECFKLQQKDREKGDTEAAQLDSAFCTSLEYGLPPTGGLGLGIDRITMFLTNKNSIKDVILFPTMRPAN

Each number is a percent effect as filed. The record does not define 0% and 100%; most values in the screen are far below 50% and negative numbers occur (in some assays of this library far below -100). The compounds are a random part of those screened. Two or more numbers in one place are separate tests of the same structure; such repeats can differ widely. A dash means the value is not listed here; it may have been measured.

ClpP1P2: 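ClpP1P2, Mycobacterium tuberculosis (UniProt P9WPC5 and UniProt P9WPC3). Protease assay of ClpP1P2, read by the AMC dye that it sets free. Compounds at 50 µM. Higher reads as stronger inhibition, judged from the few compounds that gave an IC50. Most other retested compounds had strongly negative values. Of about 69,000 compounds tested this way, about 10 (0.015%) reached 50% or more in at least one test.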
CoaBC: 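Coenzyme A biosynthesis protein CoaBC, Mycobacterium tuberculosis (UniProt P9WNZ1). Enzyme assay of CoaBC with a phosphate dye (Biomol Green) read at 650 nm. Concentration: 30 µM. Higher reads as stronger inhibition, judged from the few compounds that gave an IC50. Most strong results did not repeat in a second test. Of about 67,000 compounds tested this way, about 40 (0.06%) reached 50% or more in at least one test.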
PfKRS1: 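Lysine-tRNA ligase, Plasmodium falciparum 3D7 (UniProt Q8IDJ8). Enzyme assay of the cytosolic lysyl-tRNA synthetase in 384-well plates, read by luminescence. Tested at 30 µM. Higher reads as stronger inhibition, judged from the few compounds that gave an IC50. Of about 69,000 compounds tested this way, about 49 (0.071%) reached 50% or more in at least one test.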

Compound	ClpP1P2	CoaBC	PfKRS1
CC1CN(Cc2ccccc2)CCCN1CCS(C)(=O)=O (stereo not given)	-9.929	-2.686	3.979
Cc1cc(C)c(CNC(=O)NC2CCN(C(=O)C(C)C)CC2)c(C)c1	4.15	10.95	1.8
CNC(=O)c1cn2cc(-c3ccc(F)cc3)n(CC=C(C)C)c(=O)c2n1	-3.389	14.36	1.511
COCCOC1CCN(C(=O)NCc2coc3ccccc23)CC1	1.227	-2.521	-2.107
CCCSCC(=O)N1CCN(c2ccc(C)cc2)CC1C (stereo not given)	-3.683	15.47	1.493
CCN(Cc1cnn(CC)c1)C(=O)Cn1c(=O)ccc2ccccc21	2.268	0	1.91
Cc1n[nH]c(C)c1NC(=O)c1cccc(OCC(F)(F)F)n1	-0.5937	1.222	3.721
Cn1cc(CNc2ccc(F)c(N3CCCS3(=O)=O)c2)cn1	-6.173	6.112	5.188
Cc1csc(C(C)(C)NCCCS(C)(=O)=O)n1	-0.5663	16.96	2.453
Cc1ccc(CN(C)C(=O)CN2CCOC(Cn3cncn3)C2)o1 (stereo not given)	6.244	0.7712	10.56
CCc1cnc(CN(C(C)=O)C2CCN(CCc3ccncc3)C2)o1 (stereo not given)	-38.42	7.535	0.6821
CC(C)N1CCC(c2n[nH]cc2S(C)(=O)=O)CC1	2.972	4.276	0.04359
CC(C)[C@H]1CN(C2Cc3ccccc3C2)C[C@@H]1NS(C)(=O)=O	-17.44	11.88	-5.407
CCc1cc(N(C)Cc2ncc[nH]2)nc(N2CCOCC2)n1	-2.074	3.902	6.248
O=C(Nc1cncc(Br)c1O)c1ccon1	7.551	10.06	-0.04528
CCNCCC(Cc1ccccc1)c1ccco1 (stereo not given)	-12.21	2.762	2.795
COc1ccsc1C(=O)Nc1cc(Cl)c(=O)n(C)c1	-9.028	-4.233 and 26.89	21.09
CN(C)C[C@H]1OC[C@@H]2CCN(C(=O)c3ccc[nH]3)C[C@@H]21	6.85	5.092	1.871
Cn1c2c(c(=O)n1C)CN(S(=O)(=O)c1cccs1)CCC2	1.169	-0.813	1.622
CCCN(CCC)C(=O)CN(C)Cc1cnc(C)s1	-5.707	0.3802	-0.02415
CCCc1cc(C(=O)N2C[C@H](O)[C@@H](N3CCCC3)C2)ccn1	-10.85	3.836	0.4572
O=C(c1ccc(O)nc1)N1CCN(C(=O)c2ccc(F)c(F)c2)CC1	6.636	7.862	0.2803
Cc1c(C(C)N)cnn1-c1ccccn1 (stereo not given)	-7.062	2.155	7.487
O=C1CCCN1CC1CN(C(=O)C2CCOCC2)Cc2nccn2C1 (stereo not given)	13.44	-1.053	5.097
CCO[C@H]1C[C@@H](O)C12CCN(C1CCN(c3ccccc3C)CC1)CC2	-6.121	2.067	-2.523
Cc1ccc(OCCC(=O)N2CCN(c3cnccn3)CC2)cc1C	1.466	3.953	4.451
Cc1ccc(CN(C(=O)NCCNC(=O)c2cccnc2)C(C)C)o1	-4.983	3.902	-5.906
CC(C)c1nc(CN(C)C2CCN(CCn3cc(C#N)cn3)C2)no1 (stereo not given)	-20.29	11.3	2.039
CCCN(Cc1ccccc1O)S(=O)(=O)C(C)CC (stereo not given)	8.492	9.221	3.111
Cc1noc(C)c1-c1ccc(C2CCCN2CCC(N)=O)nc1 (stereo not given)	-1.427	7.786	0.4685
N#CCCN(CCC#N)C(=O)COC1CCCCC1	-0.8087	-	1.822
CS(=O)(=O)N1CCC2(CCN(Cc3nccs3)CC2)CC1	-3.576	1.844	1.291
Clc1ccccc1CN1CCc2nc(C3CCNCC3)ncc2C1	-9.449	4.089	2.244
CC(C)COCCC(=O)NCc1cn2cc(Br)ccc2n1	0.06454	11.98	0.1144
CCCS(=O)(=O)NCc1ncc(C)c(OC)c1C	-18.92	8.414	-0.08875
COCCN(CCOC)c1ncccc1I	12.33	2.941	-1.191
CCc1ccsc1C(=O)N1CCCC(c2noc(C)n2)C1 (stereo not given)	-14.63	1.923	1.551
COCCN(Cc1cnn(C)c1)c1nc(C)nc2sccc12	5.175	1.869	1.033
CNC(=O)[C@H]1C[C@@H]2CN(C(=O)c3ccc(C)o3)C[C@@H]2N1S(C)(=O)=O	-19.09	-0.8631	3.562
O=C(NCCCOCc1ccco1)c1cccnc1N1CCOCC1	5.753	0.7614	9.143
CCOc1nc2cnccc2n(CC(=O)NCc2ccco2)c1=O	13.32	2.527	4.245
CCNc1nc(N(C)C)nc(-n2cnc(SC)n2)n1	0.7275	1.823	1.257
CC(C)c1nn(C)c(N2CCOCC2)c1CNCc1cscn1	-4.133	4.937	4.06
CCN(Cc1cnc(-c2ccccn2)nc1)C1CCS(=O)(=O)C1 (stereo not given)	-4.628	-7.983	-0.6642
Cc1ccc(N(Cc2ccco2)C(=O)CC2=NN(C)C(=O)C2)cc1	-4.888	15.02	7.125
O=C1CCCc2occ(C(=O)N3CCCC(O)(CO)C3)c21 (stereo not given)	14.11	-	2.856
c1cnc(N2CCC3(CC2)CC(NCC2CC2)c2ccccc23)nc1 (stereo not given)	2.441	-37.84	-1.344
COC(=O)C1CCCN1CC(=O)NCc1ccc(OCC(N)=O)cc1 (stereo not given)	-5.979	2.804	4.754
COc1ccc2c(c1)CCCN2C(=O)CNCC1CN(C)CCO1 (stereo not given)	5.825	1.364	3.176
O=C(Cn1ncc2ccccc21)Nc1ccnn1CC1CCOC1 (stereo not given)	-11.39	5.216	1.688
CN(C)C(=O)CNC(=O)c1cc(Br)c2c(c1)OCCO2	-12.65	-8.482	3.96
c1cncc(-c2noc(CNCC3CCCN3c3cccnn3)n2)c1 (stereo not given)	-19.43	10.26	-0.8366
O=C(Nc1ccccc1)[C@H]1C[C@@H]2CN(C(=O)Nc3ccccc3)C[C@H]1O2	-0.2506	3.509	2.797
c1cncc(CN2CC[C@@H]3O[C@H](COCCN4CCCC4)CC[C@@H]32)c1	-8.345	3.393	6.299
Cc1cccnc1NC(=O)C1CCCN1Cc1ccccc1 (stereo not given)	10.38	-5.804	-5.762
CN(Cc1ccc2c(c1)OCCO2)C(=O)NCCc1cnn(C)c1	9.428	3.71	-0.274
Cc1cc(C2CCCN2C(=O)c2csc(-c3cnn(C)c3)n2)on1 (stereo not given)	27.81	19.46	1.006
COC[C@@H]1CCC[C@@]12CN(C(=O)C1CCOCC1)CCO2	3.936	2.104	1.807
CCC(C)(C)NC(=O)c1scnc1Cl	-11.88	-0.7937	-3.014

5 of the entries, repeated:

Compound	ClpP1P2	CoaBC	PfKRS1
O=C(c1ccc(O)nc1)N1CCN(C(=O)c2ccc(F)c(F)c2)CC1	6.636	7.862	0.2803
CCNc1nc(N(C)C)nc(-n2cnc(SC)n2)n1	0.7275	1.823	1.257
O=C1CCCN1CC1CN(C(=O)C2CCOCC2)Cc2nccn2C1 (stereo not given)	13.44	-1.053	5.097
c1cncc(-c2noc(CNCC3CCCN3c3cccnn3)n2)c1 (stereo not given)	-19.43	10.26	-0.8366
Cc1ccc(CN(C)C(=O)CN2CCOC(Cn3cncn3)C2)o1 (stereo not given)	6.244	0.7712	10.56

From ChEMBL document CHEMBL3988442, “University of Dundee, Small-Polar-MMV Screening Library” (2021).